These results are taken from patent publication US20170240613A1 (REGENTS OF THE UNIVERSITY OF COLORADO A BODY CORPORATE, published 2017).

Amino acid sequences for entries named in this document (tags omitted). A change or cut given only in a name is not applied to a line headed by its entry.
UniProt Q6DKI7: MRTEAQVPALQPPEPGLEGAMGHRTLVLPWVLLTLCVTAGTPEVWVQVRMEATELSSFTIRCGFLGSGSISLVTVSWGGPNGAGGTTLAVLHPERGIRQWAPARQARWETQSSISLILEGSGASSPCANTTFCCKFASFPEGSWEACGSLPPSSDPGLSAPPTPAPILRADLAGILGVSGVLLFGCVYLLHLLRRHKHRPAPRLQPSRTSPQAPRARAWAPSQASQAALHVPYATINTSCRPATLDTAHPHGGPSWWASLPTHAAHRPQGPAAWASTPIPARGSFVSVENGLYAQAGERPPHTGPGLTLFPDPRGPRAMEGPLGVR

No constants are given. Whether binding was seen depends on the method and setting. Some results given as binding are weak or reduced against the parent protein; the word gives no strength.

The target of test [1] is human CD112R (form used in Example 18 not stated) (human) (UniProt Q6DKI7). The test is described as follows: flow cytometry of human CD112R; axis line 'FL4-H ::2H6 0.01ug'.
The target is the same in test [2]. The test can be described thus: Example 18, FIG. 14; assay not described.
For test [3] the target is unchanged. The test is described as follows: flow cytometry of human CD112R; panel title '4-4', but the axis line reads 'FL4-H :: 4-5 0.01ug'. On the technique in general: A flow cytometer gives signals particle by particle.

B1: 2H6 CD112R monoclonal antibody (mouse anti-human CD112R, clone 2H6) (antibody, V domains shown)
VH: EVQLQQSGAELVRSGASVKMSCKVNDYTFTNYNMHWLRQTPGQGLEWIGYIYPGNGDTNYNQKFKGKATLTADTSSSTAYMQIISLTSEDPAVYFCARQGIHYYYIDVWGAGTTVTVSS
VL: DIEMTQSPATLSVTPGDRVSLSCRASQSIRDYLHWYQQKSHESPRLLIKYVSQSISGIPSRFSGSGSGSEFTLSINSVEPEDVGVYYCQNGHSLPLTFGSGTKLEIKR
On to B1, for which the binding result in test [1] and in test [2] was “binds” each time.

B2: CD112R monoclonal antibody mAb 4-4 (antibody, V domains shown)
VH: QVQLQQSGAELAKPGASVKMSCKASGYTFTSDWMHWVKQRPGQGLEWIGYINPSTGYTEYNQKFKDKATLTADKSSSTAYMQLRSLTSEDSAVYYCARGSSGSWFAYWGQGTLVTVSA
VL: DIVLTQSPASLAVSLGQRATISCRASQSVSTSSYSYMHWYQQKPGQPPKLLIKYASNLESGVPARFSGSGSGTDFTLNIHPVEEEDTATYYCQHSWEIPYTFGGGTKLEIK
Turning to B2, the binding result in test [2] and in test [3] was “binds” throughout.
